Reference: PubChem BioAssay AID1259308 (NCATS, 2017)
Assay: 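Knock-downs that increase output of a recombinant reporter protein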 (primary screen). Cell system: human HEK293 embryonic kidney cells stably expressing firefly luciferase (HEK-CMV-Luc2-Hygro). Knock-down reagent: single siRNA against human genes, 0.8 pmol siRNA per well. Time to read-out: 72 h. Measurement: 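Luciferase light (ONE-Glo) measured on one replicate plate set and viability (CellTiter-Glo) on the other, scaled to a negative control siRNA, with robust z-scores and luciferase per cell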. Reading the numbers: total luciferase, z-score and total luciferase, % of control: higher = more reporter protein produced; luciferase per cell, z-score: higher = more reporter output per viable cell. Hit rule: 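An siRNA counts as active if its total luciferase robust z-score exceeds 3; genes with two or more such siRNAs out of three were retested with fresh siRNAs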. Meaning of the calls: active = raised luciferase; inactive = no rise.
The deposit covers about 59,000 reagents; this is a part drawn at random. Over the whole deposit, about 1,510 (2.6%) are marked active. 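Calls use total luciferase alone and ignore viability, so some active siRNAs may act by altering cell number.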 Entries without a mark were called inactive. The numbers tell different reagents against one gene apart. Not all columns of the deposit are shown.

gene | siRNA no. | total luciferase, z-score | total luciferase, % of control | luciferase per cell, z-score
MMP27 | 1 | 0.498 | 91.8 | -0.248
MMP27 | 2 | 0.0255 | 82.4 | -0.649
MMP27 | 3 | -1.59 | 50.3 | -1.42
SLC25A46 | 1 | 0.738 | 96.6 | -0.0428
SLC25A46 | 2 | -0.124 | 79.4 | -0.329
SLC25A46 | 3 | -0.573 | 70.5 | 0.302
STK4 | 1 | 0.0692 | 83.3 | 0.455
STK4 | 2 | -0.684 | 68.3 | -0.565
STK4 | 3 | -0.71 | 67.8 | -0.288
ADAM2 | 1 | -0.43 | 73.3 | -0.558
ADAM2 | 2 | 0.751 | 96.8 | 0.648
ADAM2 | 3 | -1.12 | 59.5 | -0.291
GNRHR | 1 | 3.43 (active) | 150 | 3.13
GNRHR | 2 | -1.18 | 58.4 | -1.58
GNRHR | 3 | 0.286 | 87.6 | -0.0828
PRKACB | 1 | 0.0262 | 82.4 | -0.575
PRKACB | 2 | -0.175 | 78.4 | -0.833
PRKACB | 3 | -1.07 | 60.5 | -1.78
NDUFB8 | 1 | 0.55 | 92.8 | 0.622
NDUFB8 | 2 | -0.29 | 76.1 | -0.0389
NDUFB8 | 3 | -1.68 | 48.6 | -1.59
PBOV1 | 1 | -1.88 | 44.5 | -0.813
PBOV1 | 2 | 2.93 | 140 | 2.24
PBOV1 | 3 | 0.449 | 90.8 | -0.309
ANAPC16 | 1 | 2.07 | 123 | 1.53
ANAPC16 | 2 | 1.53 | 112 | 2.76
ANAPC16 | 3 | -0.0834 | 80.2 | 0.281
CEL | 1 | -0.501 | 71.9 | -0.359
CEL | 2 | -0.601 | 69.9 | -0.799
CEL | 3 | -0.429 | 73.4 | -0.0999
SLC25A31 | 1 | 1.94 | 121 | 1.03
SLC25A31 | 2 | 0.926 | 100 | -0.181
SLC25A31 | 3 | -0.324 | 75.4 | -0.875
APLN | 1 | -0.116 | 79.6 | -0.064
APLN | 2 | 1.54 | 112 | 0.869
APLN | 3 | -0.521 | 71.5 | -0.0474

Copied from above, 5 entries:
gene | siRNA no. | total luciferase, z-score | total luciferase, % of control | luciferase per cell, z-score
SLC25A31 | 1 | 1.94 | 121 | 1.03
SLC25A31 | 2 | 0.926 | 100 | -0.181
SLC25A31 | 3 | -0.324 | 75.4 | -0.875
APLN | 1 | -0.116 | 79.6 | -0.064
APLN | 2 | 1.54 | 112 | 0.869

Next records follow:
gene | siRNA no. | total luciferase, z-score | total luciferase, % of control | luciferase per cell, z-score
VWC2 | 1 | -0.904 | 63.9 | -1.28
VWC2 | 2 | 0.104 | 83.9 | 0.357
VWC2 | 3 | 0.784 | 97.5 | 0.0426
CHCHD2P10 | 1 | 4.5 (active) | 171 | 3.37
CHCHD2P10 | 2 | 2.09 | 123 | 1.94
CHCHD2P10 | 3 | -0.0426 | 81 | -0.331
UFM1 | 1 | 1.47 | 111 | 2.41
UFM1 | 2 | 0.119 | 84.3 | 0.093
UFM1 | 3 | -0.673 | 68.5 | -0.618
UBAP2L | 1 | -0.199 | 77.9 | -0.0253
UBAP2L | 2 | 0.82 | 98.2 | 0.517
UBAP2L | 3 | 1.05 | 103 | 0.642
MEF2D | 1 | 1.69 | 115 | 1.78
MEF2D | 2 | -0.573 | 70.5 | -0.605
MEF2D | 3 | -0.476 | 72.4 | 0.172
TMCC2 | 1 | -0.96 | 62.8 | -0.714
TMCC2 | 2 | -0.856 | 64.9 | -0.656
TMCC2 | 3 | 0.907 | 99.9 | 2.62
RIOK2 | 1 | -0.567 | 70.6 | -0.231
RIOK2 | 2 | -0.836 | 65.3 | 0.898
RIOK2 | 3 | 0.5 | 91.8 | 0.457
